For at least one compound, name, drawing or mass did not settle the structure.
Assays:
[1] = test system: mouse bone marrow derived macrophages (BMDM); experiment: ISG and MSR gene transcripts by RT-qPCR in BMDM; assay type: cell-based; conditions: Dox 30 μg/ml for 9 hours
[2] = test system: mouse bone marrow derived macrophages (BMDM); experiment: IFNβ measurement in BMDM culture medium (ELISA); assay type: cell-based; conditions: Dox 30 μg/ml for 14 hours
[3] = test system: TBK1 phosphorylation in BMDM; experiment: Immunoblot of phosphorylated TBK1 in BMDM; conditions: Dox 30 μg/ml for 3 hours
germ-free C57BL/6J mice = assay type: in vivo, mouse; conditions: Dox 500 mpkd, 16 days
Source text: B. Volcano plots displaying-log(adj. p-value) and the log fold change (FC) in expression of genes in kidney and liver. Above the graph, the number of differentially expressed genes is indicated (genes with adjusted p value (adj.pval)<0.05). C. […] E. Immunoblots of phosphorylated elF2α (pelF2α) and total elF2α and quantification in liver of Dox-treated germ-free mice.
Body weight at the time of the sacrifice was not different between the control and Dox-treated animals (FIG. 7A), indicating the absence of obvious adverse effects. […] Dox elicited organ-specific transcriptional responses, with the expression of remarkably more genes and different being affected in the kidney compared to the liver (FIG. 7B-C). […] The MSR features the induction of mitochondrial chaperones and proteases, such as Hspa9 and Lonp1, as well as of enzymes mediating adaptation to nutrient deprivation, such as asparagine synthetase (ASNS), which were increased at both the transcript and protein levels (FIG. 1C-D). […] Dox-treated germ-free mice kidneys thus gathered the typical attributes of the ATF4-ISR, a hallmark of the mammalian response to mitochondrial stress.
Male 9 weeks-old C57BL/6J mice were treated for 16 days with 500 mg/kg/day doxycycline hyclate (Sigma) in drinking water. Mice were housed with ad libitum access to water and food and kept under a 12-hour dark/12-hour light cycle. As doxycycline is bitter the water was supplemented for both conditions (treatments and controls) with 50 g/L sucrose. Drinking water was changed every 48 hours.

[4] = test system: mouse bone marrow derived macrophages (BMDM); experiment: Quantification of mtDNA released into cytosol of BMDM; assay type: cell-based; conditions: Dox 30 μg/ml for 1 hour

C[C@H]1c2cccc(O)c2C(=O)C2=C(O)[C@]3(O)C(=O)C(C(N)=O)=C(O)[C@@H](N(C)C)[C@@H]3[C@@H](O)[C@@H]21 [Dox, doxycycline]
expression of ISGs [1]: induced the expression of ISGs | secretion of IFNβ [2]: secretion of IFNβ | phosphorylation of TBK1 [3]: triggered the phosphorylation of TBK1 | ATF4-mediated integrated stress response (GSEA), kidney (germ-free C57BL/6J mice): induction of the ATF4-mediated integrated stress response (ISR) | OXPHOS complex activity and ATP levels in kidneys (germ-free C57BL/6J mice): reduced | eIF2α phosphorylation and ATF4-ISR program, liver (germ-free C57BL/6J mice): not induced | eIF2α phosphorylation, kidney (germ-free C57BL/6J mice): increased elF2α phosphorylation | type I IFN response, kidneys (germ-free C57BL/6J mice): also induced in kidneys but to a lesser extent | type I IFN response, liver (germ-free C57BL/6J mice; transcriptome, CGAS, CXCL10, pTBK1): induced the type I IFN response | mtDNA in the cytosol [4]: increased levels of mtDNA were detected in the cytosol

— US20240299420A1, “TETRACYCLINE DERIVATIVE-INDUCED MITOHORMESIS MEDIATES DISEASE TOLERANCE AGAINST VIRAL INFECTIONS” (priority 2021, published 2024)
